Assay results: paper PMC11980563
These are yes or no findings as the source states them, for the method shown. Binding seen in cells or lysates may run through a third protein. Some results given as binding are weak or reduced against the parent protein; the word gives no strength.

Target: T1, Bcl-2 (B-cell lymphoma-2) (mouse (endogenous in RAW264.7)), P10417
T1 chain: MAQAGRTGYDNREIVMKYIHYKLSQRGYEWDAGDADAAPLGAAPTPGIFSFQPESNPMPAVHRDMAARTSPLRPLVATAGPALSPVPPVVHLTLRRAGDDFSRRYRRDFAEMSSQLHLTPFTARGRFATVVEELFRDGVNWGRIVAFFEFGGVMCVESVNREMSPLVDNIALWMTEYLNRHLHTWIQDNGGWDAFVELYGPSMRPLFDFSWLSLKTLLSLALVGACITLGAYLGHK
Experiment: co-IP; RIPA lysate (1 mM PMSF, phosphatase inhibitors) of RAW264.7 macrophages infected with S. aureus (USA300, moeA deletion mutant); anti-Bcl-2 and protein A/G beads overnight at 4°C; co-immunoprecipitated Beclin1 detected by western blot
Conditions: remark: other sources report otherwise

B1: Beclin1, O88597 1-448 (protein)
chain: MEGSKASSSTMQVSFVCQRCSQPLKLDTSFKILDRVTIQELTAPLLTTAQAKPGETQEEEANSGEEPFIETRQDGVSRRFIPPARMMSTESANSFTLIGEASDGGTMENLSRRLKVTGDLFDIMSGQTDVDHPLCEECTDTLLDQLDTQLNVTENECQNYKRCLEILEQMNEDDSEQLQRELKELALEEERLIQELEDVEKNRKVVAENLEKVQAEAERLDQEEAQYQREYSEFKRQQLELDDELKSVENQVRYAQIQLDKLKKTNVFNATFHIWHSGQFGTINNFRLGRLPSVPVEWNEINAAWGQTVLLLHALANKMGLKFQRYRLVPYGNHSYLESLTDKSKELPLYCSGGLRFFWDNKFDHAMVAFLDCVQQFKEEVEKGETRFCLPYRMDVEKGKIEDTGGSGGSYSIKTQFNSEEQWTKALKFMLTNLKWGLAWVSSQFYNK
With B1 the binding was “binds”.
